Measurements reported in PubChem BioAssay AID493246 (Drosophila RNAi Screening Center, 2011).
Test: 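Identify essential fly genes by loss of cell viability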 (primary screen). System: Drosophila Kc and S2R+ cells. Reagent: long dsRNA against Drosophila genes. Measurement: 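Raw, unnormalised count of remaining cells in each well; per-plate z-scores of cell number underlie the calls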. Scale: Kc cell number and S2R+ cell number: higher = more cells remaining. Hit rule: 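Active when the per-plate z-score of cell number is 3 or more in the direction of fewer cells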.
The screen tested about 21,000 reagents; shown is an unselected part of those that have a named target and a result. Of all reagents, 429 (2%) were called active. 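Values are raw and not normalised between plates; calls rest on per-plate z-scores that were not deposited.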 Unmarked entries are inactive. The record does not give: the amount of reagent, the time to read-out.

{"gene": "TrissinR", "DRSC id": "DRSC02334", "Kc cell number, rep 1": 1.64e6, "Kc cell number, rep 2": 1.44e6, "S2R+ cell number, rep 1": 1.16e6, "S2R+ cell number, rep 2": 1.27e6}
{"gene": "TrissinR", "DRSC id": "DRSC02335", "Kc cell number, rep 1": 1.74e6, "Kc cell number, rep 2": 1.92e6, "S2R+ cell number, rep 1": 9.94e5, "S2R+ cell number, rep 2": 1.15e6}
{"gene": "TrissinR", "DRSC id": "DRSC02336", "Kc cell number, rep 1": 1.72e6, "Kc cell number, rep 2": 1.72e6, "S2R+ cell number, rep 1": 1.23e6, "S2R+ cell number, rep 2": 1.35e6}
{"gene": "Cam", "DRSC id": "DRSC07353", "Kc cell number, rep 1": 1.44e6, "Kc cell number, rep 2": 1.52e6, "S2R+ cell number, rep 1": 1.23e6, "S2R+ cell number, rep 2": 1.42e6}
{"gene": "Cam", "DRSC id": "DRSC07354", "Kc cell number, rep 1": 1.56e6, "Kc cell number, rep 2": 1.51e6, "S2R+ cell number, rep 1": 1.28e6, "S2R+ cell number, rep 2": 1.39e6}
{"gene": "Tdc2", "DRSC id": "DRSC04999", "Kc cell number, rep 1": 1.68e6, "Kc cell number, rep 2": 1.92e6, "S2R+ cell number, rep 1": 1.25e6, "S2R+ cell number, rep 2": 1.27e6}
{"gene": "nab", "DRSC id": "DRSC08455", "Kc cell number, rep 1": 1.69e6, "Kc cell number, rep 2": 1.53e6, "S2R+ cell number, rep 1": 1.15e6, "S2R+ cell number, rep 2": 1.46e6}
{"gene": "nab", "DRSC id": "DRSC08456", "Kc cell number, rep 1": 1.36e6, "Kc cell number, rep 2": 1.13e6, "S2R+ cell number, rep 1": 1.15e6, "S2R+ cell number, rep 2": 1.25e6}
{"gene": "Vago", "DRSC id": "DRSC19833", "Kc cell number, rep 1": 1.64e6, "Kc cell number, rep 2": 1.52e6, "S2R+ cell number, rep 1": 1.15e6, "S2R+ cell number, rep 2": 1.24e6}
{"gene": "lqfR", "DRSC id": "DRSC14703", "Kc cell number, rep 1": 1.38e6, "Kc cell number, rep 2": 1.53e6, "S2R+ cell number, rep 1": 1.06e6, "S2R+ cell number, rep 2": 1.15e6}
{"gene": "lqfR", "DRSC id": "DRSC14704", "Kc cell number, rep 1": 1.48e6, "Kc cell number, rep 2": 1.49e6, "S2R+ cell number, rep 1": 1.29e6, "S2R+ cell number, rep 2": 1.40e6}
{"gene": "VAChT", "DRSC id": "DRSC13311", "Kc cell number, rep 1": 1.48e6, "Kc cell number, rep 2": 1.55e6, "S2R+ cell number, rep 1": 1.09e6, "S2R+ cell number, rep 2": 1.24e6}
{"gene": "VAChT", "DRSC id": "DRSC16608", "Kc cell number, rep 1": 1.57e6, "Kc cell number, rep 2": 1.59e6, "S2R+ cell number, rep 1": 1.17e6, "S2R+ cell number, rep 2": 1.22e6}

2 entries already listed, sorted by “S2R+ cell number, rep 2”, descending:
{"gene": "TrissinR", "DRSC id": "DRSC02334", "Kc cell number, rep 1": 1.64e6, "Kc cell number, rep 2": 1.44e6, "S2R+ cell number, rep 1": 1.16e6, "S2R+ cell number, rep 2": 1.27e6}
{"gene": "TrissinR", "DRSC id": "DRSC02335", "Kc cell number, rep 1": 1.74e6, "Kc cell number, rep 2": 1.92e6, "S2R+ cell number, rep 1": 9.94e5, "S2R+ cell number, rep 2": 1.15e6}
